Test results published in PubChem BioAssay AID602441 (National Center for Advancing Translational Sciences (NCATS), 2012).
The whole screen tested about 1,300 compounds, of which fewer than 10 were called active. About 9% were inconclusive and are not listed. The call rests on the fitted dose curve; in most records, active means well fitted curve in the direction sought with a large enough effect; inconclusive means small, poorly fitted or top-dose-only effect, or another doubt; inactive means no such curve, though single readings can be large or run the other way. This is one part of the list.

assay: qHTS for antagonists of the Thyroid Stimulation Hormone Receptor: Hit Validation in Parental Cell Line; conditions: parental HEK293 cells lacking TSHR, counter-screen; series mostly up to 56.9 µM; activity change, negative = inhibition: at the top concentration; further: 0% is about no effect
Excerpt: The thyroid-stimulating hormone receptor (TSHR) is a member of the 7 trans-membrane-spanning receptor (7TMR) family of cell surface receptors. TSHR-mediated hyperthyroidism is important in thyroid pathology. The development of small molecule antagonists of TSHR may lead to therapeutic approaches for TSHR-mediated hyperthyroidism caused by constitutively activating mutations or stimulating auto-antibodies associated with Graves' disease. Graves' disease is the leading cause of hyperthyroidism and is caused by autoantibodies that stimulate TSHR (TsAbs) causing thyroid growth and unregulated overproduction of thyroid hormones and existing treatments have liabilities (agranulocytosis). In addition, TSHRs are known to be expressed in multiple extrathyroidal tissues including bone, brain, kidney, testis, fat and cells of the immune system but the role of the TSHR in these tissues is not clear. Therefore, TSHR antagonists/inverse agonists could be used as probes of extrathyroidal TSHR function. Finally, TSHR inverse agonists, which are a subclass of antagonists that inhibit agonist-independent (or basal or constitutive) TSHR signaling, could be used to inhibit TSH-independent signaling in patients with recurrent or metastatic thyroid cancer who are receiving thyroid hormone to suppress TSH.
In collaboration between scientist from the NCGC and the NIDDK, a miniaturized HTRF high-throughput screen was developed. It's a cell based assay, where an anti cAMP antibody contains a fluorescent cryptate tag (excitation 337 nm; emission 620 nm) and the acceptor is cAMP-d2 (excitation 620 nm; emission 665 nm). When antibody and cAMP-d2 interact and are excited by a 337 nm light, a FRET occurs resulting in emission at 665 nm. The assay is competition between cAMP-d2 and cAMP (from the cell lysate). The homogeneous protocol allows for one step dispense after stimulation that is automation friendly. This is a hit validation assay in a counterscreen using parental HEK 293 cells lines.
NIH Chemical Genomics Center [NCGC]
NIH Molecular Libraries Probe Centers Network [MLPCN]
Assay Provider: Marvin Gershengorn, NIDDK
An anti cAMP antibody contains a fluorescent cryptate tag (excitation 337 nm; emission 620 nm) and the acceptor is cAMP-d2 (excitation 620 nm; emission 665 nm). When antibody and cAMP-d2 interact and are excited by a 337 nm light, a FRET occurs resulting in emission at 665 nm. The assay is competition between cAMP-d2 and cAMP (from the cell lysate). The homogeneous protocol allows for one step dispense after stimulation that is automation friendly. This assay uses parental HEK-EM 293 cells

| SMILES | activity change, negative = inhibition |
| --- | --- |
| O=C(NCCCN1CCOCC1)c1ccc2c(c1)N(Cc1ccc(Cl)cc1)C(=O)c1ccccc1S2=O (stereo not given) | inactive: -3.57% |
| O=S(=O)(Nc1cccc(-c2ccc(N3CCCCCC3)nn2)c1)c1ccc(F)cc1 | inactive: 3.38% |
| CCCn1c(COc2ccccc2OC)nc2ccccc21 | inactive: 2.13% |
| CCc1ccc(NC(=O)c2nc(S(=O)(=O)Cc3ccccc3)ncc2Cl)cc1 | inactive: 4.16% |
| O=C(COCc1cc(-c2cccs2)on1)NC1CCCCC1 | inactive: 0.869% |
| CCOc1ccnc2c1c(=O)n(Cc1cc(OC)cc(OC)c1)c(=O)n2C | inactive: 3.72% |
| COc1ccc(NS(=O)(=O)c2ccc(N/N=C(\C)c3ccncc3)c([N+](=O)[O-])c2)cc1 | inactive: -6.85% |
| O=C(NCc1cccnc1)c1nc(-c2ccccc2)n(-c2ccccc2)n1 | inactive: -1.31% |
| COc1ccc(CN(C)C(=O)COC(=O)c2ccc(-c3ccccc3)cc2)c(OC)c1OC | inactive: -6.46% |
| Cc1ccc(Oc2cc(NC(=O)CCCn3nc([N+](=O)[O-])cc3C)cc([N+](=O)[O-])c2)cc1 | inactive: -3.73% |
| Cc1sc2ncn(CC(=O)NCCCC(=O)NCc3ccc(F)cc3)c(=O)c2c1C | inactive: 1.93% |
| CSCc1cc(N2CCOCC2)nc(SCc2ccc(Cl)cc2Cl)n1 | inactive: -1.36% |
| O=C(c1cccc(Cl)c1)N1CCN(Cc2ccc3c(c2)OCO3)CC1 | inactive: 3.11% |
| O=C(CN1C(=O)c2ccccc2S1(=O)=O)NCCSCc1cccc(Cl)c1 | inactive: -1.03% |
| CCOc1ccccc1-n1c(=S)sc2c(=O)n(-c3ccc(F)cc3)c(SCC(=O)O)nc21 | inactive: 3.25% |
| Cc1sc2ncnc(N3CCN(CCOc4ccc(Cl)cc4)CC3)c2c1C | inactive: 2.16% |
| CCOC(=O)C1CCCN(S(=O)(=O)c2cnc(Cl)c(Br)c2)C1 (stereo not given) | inactive: 2.51% |
| COc1ccc(-c2ccc(SCc3ccccn3)nn2)cc1OC | inactive: 5.18% |
| CCOc1ccccc1NC(=O)c1nc(S(=O)(=O)Cc2cccc(C)c2)ncc1Cl | inactive: -8.41% |
| COc1ccc(-c2nnc(CSc3nc4ccccc4c(=O)n3CC3CCCO3)o2)cc1OC (stereo not given) | inactive: 1.83% |
| COc1ccc(-n2nc(C(=O)NCC(=O)NCCCN3CCN(C)CC3)c3ccccc3c2=O)cc1 | inactive: 4.12% |
| c1ccc2c(CSc3ncnc4nc[nH]c34)cccc2c1 | inactive: 3.53% |

| SMILES | activity change, negative = inhibition |
| --- | --- |
| O=C(COC(=O)c1cc(S(=O)(=O)N2CCOCC2)c(Cl)cc1Cl)c1ccc[nH]1 | inactive: -6.75% |
| O=C1C=C(c2ccc(Cl)c(C(F)(F)F)c2)C[C@@H](c2ccc(F)cc2)C1 | inactive: -0.527% |
| C(=N\Nc1nc2ccccc2[nH]1)/c1ccncc1 | inactive: -5.98% |
| CCC(C)Sc1ccc(-c2nc3ccc(C)cn3c2NCc2ccccc2)cc1OC (stereo not given) | inactive: -12% |
| Cc1onc(-c2ccccc2Cl)c1C(=O)NC(=S)Nc1ccc(C(C)C)cc1 | inactive: 4.35% |
| COc1cccc(/C=N/NC(=O)C(=O)N2CCCC2)c1O | inactive: 4.42% |
| CCOc1ccc(-n2c(SCC(=O)Nc3cc(C)on3)nc3c(c2=O)SCC3)cc1 | inactive: 0.0503% |
| COc1cc(NC(=O)C(C)C)ccc1NC(=O)c1ccco1 | inactive: -2.25% |
| CS(=O)(=O)N(CC(=O)N1CCOCC1)c1cccc(F)c1 | inactive: 4.72% |
| O=C(/C=C/c1ccco1)Nc1ccc(Oc2ccc(Cl)cc2)cc1 | inactive: -1.52% |
| O=C(Nc1ccc(N=Nc2ccccc2)cc1)c1ccccc1Cl | inactive: -5.44% |
| COc1cc(NS(=O)(=O)c2ccc(C)cc2C)cc(OC)c1OC | inactive: 1.77% |
| O=c1[nH]c(=O)c2nnc(N/N=C/c3ccccc3F)nc2[nH]1 | inactive: 2.3% |
| O=[N+]([O-])c1ccc(N2CCN(C(=S)NCc3ccc(Cl)cc3)CC2)cc1 | inactive: -3.57% |
| O=C(CSc1nc(-c2ccc(Cl)cc2)cs1)Nc1cccc([N+](=O)[O-])c1 | inactive: -11.1% |
| COc1ccccc1NC(=O)c1nc(S(=O)(=O)Cc2ccccc2)ncc1Cl | inactive: -5.56% |
| O=C(Nn1cnnc1)C(c1ccccc1)c1ccccc1 | inactive: 6.14% |
| O=C(CN1C(=O)NC2(CCCc3ccccc32)C1=O)N1CCN(c2cccc(C(F)(F)F)c2)CC1 (stereo not given) | inactive: 3.09% |
| Cc1ccc(S(=O)(=O)N(Cc2ccccc2)c2ccccc2C(=O)N2CCCCC2)cc1 | inactive: -3.47% |
| CCCCn1c(/N=C/c2ccccc2NS(=O)(=O)c2ccc(C)cc2)nc2ccccc21 | inactive: -2.31% |
| Cc1ccc(CN2C(=O)c3ccccc3Sc3ccc(C(=O)NCCCN4CCOCC4)cc32)cc1 | inactive: -3.51% |
| Cc1cccc(OC2CCN(Cc3nc(CC4CC4)no3)CC2)c1 | inactive: 2.14% |

| SMILES | activity change, negative = inhibition |
| --- | --- |
| Nc1nc(SCC(=O)Nc2ccc([N+](=O)[O-])cc2)[nH]c(=O)c1NC(=O)c1ccc(Br)cc1 | inactive: -0.104% |
| CCCn1nnc(NC(=O)C(C)Oc2ccc(Cl)cc2Cl)n1 (stereo not given) | inactive: 0.679% |
| Cc1ccc(-c2ccc(/C=N/N=C3/NC(=O)C(CC(=O)O)S3)o2)c([N+](=O)[O-])c1 (stereo not given) | inactive: 2.07% |
| CCn1nc([N+](=O)[O-])c(C(C#N)c2nc3cc(C(F)(F)F)ccc3s2)c(Cl)c1=O (stereo not given) | inactive: -1.01% |
| Cc1cc(C)n(C(=O)/C(C#N)=N/Nc2cc(Cl)cc(Cl)c2)n1 | inactive: 0.0538% |
| Cc1nn(CCCC(=O)Nc2cc(Oc3ccccc3)cc([N+](=O)[O-])c2)c(C)c1[N+](=O)[O-] | inactive: -1.09% |
| COc1ccc(CN2CCCN(C)CC2)c(OC)c1C | inactive: 0.262% |
| O=C(NCCN1CCOCC1)c1c(Cl)cccc1Cl | inactive: 3.93% |
| N=c1oc2ccccc2cc1C(=O)NC1CCCCCC1 | inactive: 2.24% |
| O=C(Nc1c(F)cc(F)cc1Br)c1cc(-c2ccc(O)cc2)on1 | inactive: -6.63% |
| N#C/C(=C\c1ccc(Oc2ccc(C(F)(F)F)cc2[N+](=O)[O-])cc1)c1nc2ccccc2[nH]1 | inactive: -3.12% |
| COc1cccc(CNC(=O)c2nnn(CC(=O)Nc3cc(Cl)ccc3C)c2N)c1 | inactive: -0.529% |
| CC1Cc2ccccc2N1C(=O)COC(=O)/C=C/c1cccc(F)c1 (stereo not given) | inactive: -1.49% |
| O=C1NC(=S)N(C(=O)c2ccc(F)cc2)/C1=C/c1ccccc1 | inactive: -4.61% |
| Cc1ccc(OC(F)F)c(NC(=O)Nc2cccc(C(F)(F)F)c2)c1 | inactive: -4.88% |
| COc1ccc(NS(=O)(=O)c2cc(-c3cnc(C4CC4)o3)ccc2C)cc1 | inactive: -1.1% |
| O=[N+]([O-])c1ccc(S(=O)(=O)c2ccccc2)nc1 | inactive: -8.08% |
| N/C(=N\OC(=O)Nc1ccccc1)c1cccc(C(F)(F)F)c1 | inactive: -2.45% |
| N#Cc1c(C(F)(F)F)cc(-c2ccc(Cl)cc2)[nH]c1=O | inactive: -0.329% |
| Cc1ccc(NC(=O)C(C)c2ccc(-c3ccccc3)c(F)c2)cc1 (stereo not given) | inactive: 0.0015% |
| O=C(Nc1ccncc1)c1cccc(S(=O)(=O)N2CCc3ccccc32)c1 | inactive: -2.96% |

Filtered by structure, the entries above containing bromine

| SMILES | activity change, negative = inhibition |
| --- | --- |
| CCOC(=O)C1CCCN(S(=O)(=O)c2cnc(Cl)c(Br)c2)C1 (stereo not given) | inactive: 2.51% |
| Nc1nc(SCC(=O)Nc2ccc([N+](=O)[O-])cc2)[nH]c(=O)c1NC(=O)c1ccc(Br)cc1 | inactive: -0.104% |
| O=C(Nc1c(F)cc(F)cc1Br)c1cc(-c2ccc(O)cc2)on1 | inactive: -6.63% |
